Test results: PubChem BioAssay AID1347423 (Functional Genomics Laboratory (NCATS/FGL), 2020)
About 210 (0.4%) of roughly 52,000 sequences were called active.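 The calls were made as follows: active = gene whose silencing raises cell survival under the drug, median off-target-corrected z-score across its silencing RNAs 2 or more; inactive = the rest.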 The list shows a part of the results.

Assay: Resistance to Poly (ADP-Ribose) Polymerase inhibitor: Gene Identification via Genome-wide siRNA Screen
Settings: mouse BRCA2 R2336H ES cells, olaparib, CellTiter-Glo viability; stronger effect = higher value
How it was run: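 Mouse BRCA2 R2336H ES cells were reverse-transfected with siRNA (20 nM final), treated at 48 h with 500 nM olaparib, and read by CellTiter-Glo after 72 h. Scores: MAD-based z per siRNA, median per gene, seed off-target correction.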

| Sequence | z-score |
| --- | --- |
| GGUCCCUAGAAAUUCGGGATT against 3632410F03Rik | inactive: 0.382 |
| GGUCUUACCUUUUGAAAAATT against Mtbp | inactive: -1.46 |
| GCUUUGACCUCGAAAAUGGTT against Pde4c | inactive: 0.254 |
| CCAGAGUCGCUACAAAAUUTT against V1rd21 | inactive: -0.451 |
| GGUGUUUGCUAAGGUGCUCTT against Ampd3 | inactive: 1.27 |
| CCACCUAUUACAUGAUCUUTT against Rnf32 | inactive: -0.321 |
| GCACAAGAUUGACAAGAGCTT against 5430437P03Rik | inactive: -0.323 |
| GGUGCCUCUUAAAUAAAAATT against A630008I04 | inactive: -1.3 |
| CCCUGAUACUCAAUGAAGATT against BC049762 | inactive: -0.199 |
| CCACAUCUAAAGUUCAAGATT against Map3k7ip2 | inactive: -1.5 |
| GGGAGAGAGUUGGCUCUGATT against Prg3 | inactive: 0.0449 |
| CCAGUUGUGUGAAUUAUGUTT against Psmd2 | inactive: -2.44 |
| GGUAAAACCGACAUUGACCTT against Lphn1 | inactive: 0.767 |
| GGUAUUCUUCUACACUCCATT against A530065E19Rik | inactive: -1.12 |
| CGACAAGGGUUUUUAUUCUTT against Smcr8 | inactive: 1.6 |
| GCUGCACGAUGCAUGGUUUTT against Accn3 | inactive: 0.648 |
| GGUGUUUGCCUCAGAAAUCTT against Pctk2 | inactive: -0.338 |
| GGACUCAUUUUCUUGAUGGTT against Mre11a | inactive: 0.821 |
| GCAUGCGCCCUAAAGGAAATT against LOC574428 | inactive: -1.03 |
| GGUCUUUGUACAUCAAUGUTT against A830058L05 | inactive: 0.0266 |
| GCUUUGUUGCCCUACUACCTT against Pacrg | inactive: 0.131 |
| GGGAACUAAGCAUUUUGAATT against Sec23a | inactive: 0.255 |

| Sequence | z-score |
| --- | --- |
| GGUUCGUAUUCUCUUGGUGTT against H28 | inactive: -0.526 |
| GCGACAGAAGUGUCAUAAUTT against Phax | inactive: -1.19 |
| GGCCACAUGCUUAAAGUGCTT against Slc7a9 | inactive: -0.573 |
| GGAACUGUGGUUUUCUACCTT against 6530413N01Rik | inactive: -0.912 |
| CCUUAUGAAUCCCGAGUACTT against Bmp6 | inactive: -2.59 |
| GGGACAAAGGUUGAACAAGTT against Zfp36l1 | inactive: -1.96 |
| GGCUGUGCUACAGUUUCUCTT against 1110007L15Rik | inactive: 2.82 |
| CCACUUUCAGAAACAUUACTT against BC048546 | inactive: -0.631 |
| GGAAGAGACUUAUAAUGGUTT against Olfr1214 | inactive: 1.98 |
| CCUGUUUCUUUCAUGCAGUTT against 2310022A10Rik | inactive: -0.415 |
| GGGCAUUGGUUCUCAGUGUTT against F730108M23Rik | inactive: -2.11 |
| GCCCUAAGGAAGUACAGAGTT against Rgs19 | inactive: 1.27 |
| GGCUCAGUUUACAAACCUGTT against D10Wsu93e | inactive: 1.42 |
| GGAUGGUUACUAUCAGACUTT against Sec6l1 | inactive: -0.55 |
| GGACCAUUUCCAUAGAGACTT against 8430417G17Rik | inactive: 1.51 |
| GGUCCAGAUUUACAACCCATT against Siat5 | inactive: 1.73 |
| GCCACACUCCAUAAUUAGGTT against Als2cr13 | inactive: 0.111 |
| GGUCUAGGUAGGAGAACUUTT against Elf4 | inactive: -1.98 |
| GGGCUGACUUCCUAUGACCTT against Adra2c | inactive: 0.489 |
| GCGACAGCUUUGCUAAGAUTT against Ndfip2 | inactive: -1.13 |
| UGACUUUUGGACACGAGGCTT against Trim15 | inactive: -0.432 |
| GGAAGUGUUUGAUGUCUUATT against Stk4 | inactive: -1.1 |

| Sequence | z-score |
| --- | --- |
| GGACAGUGGCACAAUGACATT against Dcbld1 | inactive: -1.17 |
| GGUCUCGCUCCAAGGAAGATT against Sfrs10 | inactive: -1.48 |
| CGUUGUAUUUGGAAAAGUCTT against Ppic | inactive: -1.84 |
| GGGUUGUUUAAAAGGCCUUTT against 1110032D12Rik | inactive: 1.48 |
| GGAUCCGUGCAGACAUUGUTT against Gstm1 | inactive: -0.564 |
| CCACACGGUCUUAGAUGAGTT against Cdkl3 | inactive: 0.123 |
| GCUGUAUCACAAGAAGCCGTT against D7Ertd462e | inactive: 0.282 |
| GGACGUAAUACCUGAGGAUTT against Caps2 | inactive: -2.09 |
| GGACAAGAAGGCAAAUUAGTT against Arhgap9 | inactive: 0.831 |
| GGGCCAUACCAUUUGGGUGTT against 1700123D08Rik | inactive: 0.407 |
| GUGAAACCUACAAAAAGCCTT against Ms4a4c | inactive: 1.32 |
| GGAUAGCUUGUGUAGACACTT against Olfr42 | inactive: 1.63 |
| GGCCAAGUCAAAAUAUUCUTT against Tm7sf1 | inactive: 1.92 |
| CGUCUAAAAGCUAAAGAAUTT against Serpinb1b | inactive: -0.437 |
| GCUCAUCACCUAUGCAGGCTT against Olfr371 | inactive: 0.219 |
| GGACUGAAACUCGAAGCUATT against Pou4f2 | inactive: -0.195 |
| GGGUUUCACAGGCAAACAGTT against Suclg1 | inactive: 1.86 |
| GGAAAAACCUUGCUGGAACTT against Atp2a2 | inactive: -0.674 |
| GGUGUUAACAAAAUGUACCTT against Phyh | inactive: 0.694 |
| UCUGUAAACCCUUACGAUATT against Olfr1206 | inactive: -0.0844 |
| CCUUGUUACACAGUUUAAATT against Aqp4 | inactive: 0.53 |
| GGCUGUAAAACUCUGGUUUTT against V1ri6 | inactive: 0.858 |

Three entries from above in a different format:
Sequence,z-score
GGACAGUGGCACAAUGACATT against Dcbld1,inactive: -1.17
GGAUCCGUGCAGACAUUGUTT against Gstm1,inactive: -0.564
GGACAAGAAGGCAAAUUAGTT against Arhgap9,inactive: 0.831
